Molecular target: Bile salt export pump (Homo sapiens, UniProt O95342)
Assay: Inhibition of human BSEP overexpressed in Sf9 cell membrane vesicles assessed as uptake of [3H]-taurocholate in presence of ATP measured after 15 to 20 mins by membrane vesicle transport assay
Format: ADME, cell-based

Sequences of proteins named here, by UniProt entry; tags and fusion partners are left off.
UniProt O95342, whole entry: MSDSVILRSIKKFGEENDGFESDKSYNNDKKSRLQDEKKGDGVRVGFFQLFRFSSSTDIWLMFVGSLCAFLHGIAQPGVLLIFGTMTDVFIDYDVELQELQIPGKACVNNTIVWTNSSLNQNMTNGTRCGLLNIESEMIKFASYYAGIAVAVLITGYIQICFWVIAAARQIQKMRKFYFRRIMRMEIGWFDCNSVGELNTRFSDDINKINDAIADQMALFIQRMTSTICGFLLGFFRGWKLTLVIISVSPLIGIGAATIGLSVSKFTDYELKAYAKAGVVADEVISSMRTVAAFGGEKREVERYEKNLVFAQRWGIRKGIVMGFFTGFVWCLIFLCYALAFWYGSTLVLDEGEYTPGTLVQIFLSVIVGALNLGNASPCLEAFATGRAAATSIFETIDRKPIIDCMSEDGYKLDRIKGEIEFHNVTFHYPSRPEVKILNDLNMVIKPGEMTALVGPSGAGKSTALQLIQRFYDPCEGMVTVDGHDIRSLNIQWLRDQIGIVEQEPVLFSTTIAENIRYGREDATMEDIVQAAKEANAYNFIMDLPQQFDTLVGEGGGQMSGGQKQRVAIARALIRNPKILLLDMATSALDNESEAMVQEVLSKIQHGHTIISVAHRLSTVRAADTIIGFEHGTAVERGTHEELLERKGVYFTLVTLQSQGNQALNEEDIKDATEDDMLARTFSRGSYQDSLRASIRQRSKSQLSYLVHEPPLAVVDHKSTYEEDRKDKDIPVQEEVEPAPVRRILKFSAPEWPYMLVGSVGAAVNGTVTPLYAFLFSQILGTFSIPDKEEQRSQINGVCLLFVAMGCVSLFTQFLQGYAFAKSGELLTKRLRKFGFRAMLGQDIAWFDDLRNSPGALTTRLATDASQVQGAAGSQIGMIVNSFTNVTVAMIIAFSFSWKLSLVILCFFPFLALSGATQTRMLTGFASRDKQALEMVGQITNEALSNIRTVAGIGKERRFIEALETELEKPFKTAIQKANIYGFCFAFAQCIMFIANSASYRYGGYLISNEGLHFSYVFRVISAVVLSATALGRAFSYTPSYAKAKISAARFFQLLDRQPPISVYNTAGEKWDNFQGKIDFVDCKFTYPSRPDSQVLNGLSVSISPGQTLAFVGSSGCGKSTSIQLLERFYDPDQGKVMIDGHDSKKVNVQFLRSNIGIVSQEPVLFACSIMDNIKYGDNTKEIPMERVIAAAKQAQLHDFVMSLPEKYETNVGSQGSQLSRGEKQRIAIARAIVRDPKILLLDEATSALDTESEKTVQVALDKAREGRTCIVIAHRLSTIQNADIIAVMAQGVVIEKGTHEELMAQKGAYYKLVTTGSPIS

SMILES	IC50
Clc1ccc2c(c1)CCc1cccnc1C2=C1CCNCC1 [DESLORATADINE]	> 133 µM
O=C1CCc2ccc(OCCCCN3CCN(c4cccc(Cl)c4Cl)CC3)cc2N1 [ARIPIPRAZOLE]	> 133 µM
CN1CCN(CCCN2c3ccccc3Sc3ccc(Cl)cc32)CC1 [PROCHLORPERAZINE]	> 133 µM
Cc1nc2n(c(=O)c1CCN1CCC(c3noc4cc(F)ccc34)CC1)CCCC2 [RISPERIDONE]	> 133 µM

From ChEMBL document CHEMBL4028801, “A multifactorial approach to hepatobiliary transporter assessment enables improved therapeutic compound development” (Toxicol Sci, 2013)
